The values that follow come from PubChem BioAssay AID493014 (National Center for Advancing Translational Sciences (NCATS), 2011).

The nature of the assay: qHTS Assay to Find Inhibitors of Chronic Active B-Cell Receptor Signaling. Particulars: ABC-DLBCL IkBa-CBG/CBR reporter, luminescence ratio (green luciferase fused to IkBa over red control in TMD8 lymphoma cells), 4 h. The essentials:
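TMD8 ABC-DLBCL cells carrying doxycycline-inducible green luciferase fused to IkappaBalpha plus unfused red luciferase were exposed to compounds (up to 46 uM) for 4 hrs at 37C. Activity came from the overlap-corrected green/red luminescence ratio.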
Background: In qHTS, concentration-response curves come from the screen itself.

[1] abbreviates: measured here: CBR red luminescence, cell number.
The mark [2] stands for this setting: measured here: IkBa-CBG green luminescence.

This is one part of the list. Shown are side measurements of this screen, not its main read-out; they come without a call. Compounds called inactive in the main read-out are mostly missing here. Words in brackets tell the shape of the fitted curve; partial curves, single points and poor fits give uncertain potencies.

As to `COc1cccc(NC(=S)/C(=C(\[O-])c2ccc(OC(F)F)cc2)[n+]2ccccc2)c1`, under setting [1], the AC50 is 35.5 µM [falling, single point]. `COCCn1c(N)c(C#N)c2nc3ccccc3nc21`: the AC50 under setting [1] is 6.51 µM [falling, single point].

For the compound `CCCCN1C(=O)c2ccc(C(=O)NCc3ccco3)cc2C1=O`, under setting [1], the AC50 is 0.708 µM [falling, partial curve, poor fit]. The same measure, in the same setting: with `COc1ccc(NC(=O)COC(=O)CC2CCCCC2)cc1` the figure was 13 µM [rising, partial curve, poor fit]; with `Cc1cc(C(=O)CCC(=O)Nc2ccc(S(N)(=O)=O)cc2)c(C)s1`, 29.1 µM [falling, partial curve, poor fit].

For `CCON1C(=O)C(C)(C)N(OCC)C(=O)C1(C)C`, under setting [1], the concentration at half-maximal activity (AC50) is 20 µM [rising, partial curve, poor fit]. Regarding `CC(C)(C)SCCSC1=CC(=O)CC(c2ccccc2)C1` (stereo unspecified), the AC50 under setting [1] was 15.8 µM [rising, single point]. Turning to `COc1cc(C2CC(c3ccccc3)=NN2c2ccccc2)ccc1OCC(=O)O` (stereo unspecified), under setting [1], the AC50 is 1.26 µM [falling, full curve]. Still for that read-out and setting: with `CCCC(=O)Nc1ccc2nn(-c3ccc(OC)cc3)nc2c1` the figure was 11.2 µM [rising, partial curve, poor fit]; with `CCOC(=O)C1CCCN(Cc2cccs2)C1` (stereo unspecified), 29.1 µM [rising, single point]. The same measure, in the same setting: with `COc1ccc(NC(=O)/C=C\C(=O)N(c2ccc(C(C)C)cc2)C(C(=O)NCc2ccco2)c2ccc(C)cc2)cc1` (stereo unspecified) the figure was 10 µM [falling, partial curve, poor fit]; with `Cn1c2ccccc2n2c(=O)cc(-c3ccccc3)c(C#N)c12`, 0.398 µM [falling, full curve]. Still for that read-out and setting: with `C/C(=N/NC(=O)c1ccc(C)s1)c1cccc(NC(=O)c2ccoc2C)c1` the figure was 35.5 µM [falling, partial curve, poor fit]; with `O=C(Nc1ccc(Cl)cn1)c1ccccc1[N+](=O)[O-]`, 10 µM [falling, partial curve, poor fit]. In the case of `Cn1c(C(=O)NCCN2CCCCCC2)cc2c(=O)n(C)c3ccccc3c21`, under setting [1], the AC50 is 5.17 µM [rising, single point]. Consider `O=C(Nc1c(F)cc(F)cc1Br)c1cc(-c2ccccc2)on1`, for which the AC50 under setting [1] was 3.98 µM [falling, full curve, poor fit]. In the case of `COc1cccc(Nc2nc3cc(C)ccc3nc2NS(=O)(=O)c2ccc(Cl)cc2)c1`, under setting [1], the AC50 was 2.51 µM [falling, partial curve, poor fit]. The same measure, in the same setting: the same measure for `NC1=NC(c2cn(-c3ccccc3)nc2-c2cccs2)n2c(nc3ccccc32)N1` (stereo unspecified): 23.1 µM [rising, partial curve, poor fit]. Take `Cc1ccc(NC(=O)CN2CCc3cc4c(cc3C2C)OCCCO4)cc1` (stereo unspecified): the AC50 under setting [1] is 22.4 µM [falling, single point].

As for `Clc1ccc(-c2cnc3ccccc3n2)cc1`, the AC50 under setting [1] is 2.59 µM [rising, full curve, poor fit]. Same read-out and setting: the same measure for `CC(=O)C1C(=O)c2c(cccc2[N+](=O)[O-])C1=Nc1cccc(Cl)c1` (stereo unspecified): 12.6 µM [falling, single point]. Regarding `Cc1c(CCC(=O)N[C@@H](CCCNC(N)=O)C(=O)O)c(=O)oc2cc3oc4c(c3cc12)CCCC4`, the AC50 under setting [1] was 25.1 µM [rising, partial curve, poor fit] and the AC50 under setting [2] was 7.94 µM [falling, partial curve, poor fit]. In the case of `COC(=O)c1ccc(/C=C(\C#N)c2ccccn2)cc1`, under setting [1], the AC50 was 1.26 µM [rising, partial curve, poor fit]. For the compound `CCn1c(SCC(=O)Nc2oc(-c3ccccc3)c(-c3ccccc3)c2C#N)nnc1-c1cc(OC)cc(OC)c1`, the AC50 under setting [1] was 0.103 µM [falling, full curve, poor fit]. For `O=C(COc1ccc2ccccc2c1Br)N1CCOCC1`, the AC50 under setting [1] is 20.6 µM [rising, partial curve, poor fit]. Same read-out and setting: with `Cc1[nH]c2ccccc2c1/C=N/NC(=O)c1cccc(S(=O)(=O)Nc2cccc(C(F)(F)F)c2)c1` the figure was 22.4 µM [falling, single point].

For the compound `Cc1ccc(C(=O)Nc2ccc(C(=O)O)cc2)cc1S(=O)(=O)NCc1ccccc1`, the AC50 under setting [1] was 3.16 µM [rising, full curve, poor fit]. Take `CC1(C)Cc2c(C#N)c(N3CCN(C(=O)c4ccccc4)CC3)nc(Cc3ccccc3)c2CO1`: the AC50 under setting [1] was 1.84 µM [falling, partial curve, poor fit]. Regarding `COCCN(CCOC)c1cc(C)c(C#N)c2nc3ccccc3n12`, the AC50 under setting [1] is 0.00411 µM [rising, full curve, poor fit]. The same measure, in the same setting: with `CC(=O)Nc1cc2nn(-c3ccccc3)nc2cc1Cl` the figure was 2.59 µM [rising, full curve, poor fit]; with `COc1ccc(C)cc1C(=O)CCC(=O)Nc1ccccc1N1CCOCC1`, 29.1 µM [falling, single point].

For the compound `CCC(Sc1nc(C)cc(=O)[nH]1)C(=O)Nc1nc(-c2ccccc2)cs1` (stereo unspecified), the AC50 is, setting by setting: under setting [1], 14.6 µM [falling, partial curve, poor fit]; under setting [2], 5.8 µM [rising, partial curve, poor fit]. As for `COc1ccc(/C=C2\Oc3cc(OCC(N)=O)ccc3C2=O)cc1OC`, the AC50 under setting [1] is 6.31 µM [falling, single point].

On to `CCn1ncc(Br)c1C(=O)Nc1ccc(OC(F)(F)F)cc1`, for which the AC50 under setting [1] was 14.1 µM [rising, single point]. As to `CC(C)Oc1ccc(C(=O)/C=C2/C(=O)Nc3ccccc32)cc1`, the AC50 by setting is: under setting [1], 31.6 µM [rising, single point]; under setting [2], 35.5 µM [falling, single point]. As for `COc1ccc(C(=O)N2CCN(C3CCCCC3)CC2)cc1OC`, the AC50 under setting [1] is 3.55 µM [falling, full curve].

As for `COc1ccc(-c2cc(C(=O)Nc3cc(C)ccc3O)no2)cc1`, the AC50 under setting [1] was 1.41 µM [falling, partial curve, poor fit].

With `Cc1ccc(C(C#N)c2ccc(Cl)nn2)cc1` (stereo unspecified), the AC50 is 11.2 µM [falling, partial curve, poor fit] under setting [1] and 15.8 µM [rising, partial curve, poor fit] under setting [2]. In the case of `CCCCNC(=O)/C=C/c1ccc(OC)c(Br)c1`, the AC50 under setting [1] was 13 µM [rising, partial curve].

As for `CC(=O)c1ccc(OCC(O)Cn2nnc3ccccc32)cc1` (stereo unspecified), the AC50 under setting [1] was 3.55 µM [rising, partial curve].

On to `O=C(CCCn1c(SCc2cccc(F)c2)nc2ccccc2c1=O)NCC1CCCO1` (stereo unspecified), for which the AC50 under setting [1] is 0.0708 µM [falling, full curve, poor fit]. Consider `CCC1CCCCN1C(=O)COC(=O)c1cc(=O)[nH]c2ccccc12` (stereo unspecified), for which the AC50 under setting [1] was 25.9 µM [rising, single point]. `Nc1[nH]n2c(=O)cc(-c3ccccc3)nc2c1N=Nc1ccc2c(c1)OCO2`: the AC50 under setting [1] was 6.31 µM [falling, partial curve, poor fit]. On to `CCOc1ccc(NC(=O)c2ccco2)cc1`, for which, under setting [1], the AC50 is 18.4 µM [falling, single point]. Consider `CCC1=C/C(=C/c2sc3ccccc3[n+]2CC)CC(C)(C)C1`, for which the AC50 under setting [1] is 11.2 µM [falling, partial curve, poor fit]. For the compound `COc1ccc(Cl)cc1NC(=O)C/C(C)=N/NC(=O)CCc1ccccc1`, the AC50 under setting [1] was 7.08 µM [falling, partial curve]. Still for that read-out and setting: the same measure for `O=C(CN1CCOCCOCCOCCOCC1)Nc1ccccc1`: 14.6 µM [falling, partial curve]; for `Cc1ccc2c(c1)oc(=O)n2CC(=O)c1ccccc1`: 0.447 µM [rising, full curve, poor fit]; for `COc1cc(NC(=O)CSc2c3c(nc4ccccc24)CCC3)cc(OC)c1OC`: 18.4 µM [falling, single point].

Regarding `Cc1c(C(=O)NCc2cccnc2)sc2nc(-c3ccc(F)cc3)cn12`, under setting [1], the AC50 is 29.1 µM [falling, single point]. Turning to `Cc1nc(Cc2nnc(SC(C)C(=O)N3c4ccccc4NC(=O)C3(C)C)o2)cs1` (stereo unspecified), under setting [1], the AC50 was 0.164 µM [falling, full curve, poor fit]. `Cc1cccc2c(N=Nc3ccc(S(=O)(=O)Nc4ccc(Cl)cc4)cc3[N+](=O)[O-])c(O)[nH]c12`: under setting [1], the AC50 was 0.708 µM [rising, full curve, poor fit]. The same measure, in the same setting: the same measure for `COC(=O)C(C)N(C(=O)c1ccc(Cl)cc1)c1c(C)cccc1C` (stereo unspecified): 25.9 µM [falling, single point]; for `CC1c2[nH]c3ccccc3c2C[C@H]2C(=O)N(CCO)CC(=O)N12` (stereo partly specified): 35.5 µM [rising, single point]. With `COc1cc(C(=O)Nc2ccncc2)c([N+](=O)[O-])cc1OC`, the AC50 under setting [1] is 2.82 µM [falling, partial curve, poor fit]. With `O=C(CN1CCN(c2ccccn2)CC1)Nc1ccc(F)cc1F`, under setting [1], the AC50 was 8.91 µM [falling, partial curve, poor fit]. For `CCCCC(=O)Nc1nc2ccc(C(=O)OC)cc2s1`, under setting [1], the AC50 is 7.08 µM [falling, partial curve]. For the compound `O=C1CSC(=NC2CCCCC2)N1`, under setting [1], the AC50 was 0.651 µM [falling, full curve, poor fit]. Still for that read-out and setting: the same measure for `Cc1cc(C)c2c(N)c(C(=O)NCc3ccco3)sc2n1`: 16.4 µM [falling, partial curve, poor fit]; for `CC1CCN(Cc2nc(-c3ccccc3)no2)CC1`: 3.98 µM [rising, full curve, poor fit]. Still for that read-out and setting: with `O=C(O)CC/C(=N/NC(=O)CNC(=O)Cc1ccc(Cl)cc1)c1ccccc1` the figure was 4.47 µM [falling, partial curve, poor fit]; with `CCc1n[nH]c(=S)n1/N=C/C(C)=C\c1ccccc1`, 12.6 µM [rising, partial curve, poor fit].

As a reminder, the AC50 is the midpoint of the concentration-response curve, whichever way the signal moves.
